Measurements from patent US20170173060A1, “ACTIVATION OF THE ENDOGENOUS ILEAL BRAKE HORMONE PATHWAY FOR ORGAN REGENERATION AND RELATED COMPOSITIONS, METHODS OF TREATMENT, DIAGNOSTICS, AND REGULATORY SYSTEMS” (VOLANT HOLDINGS GMBH, priority 2014, published 2017).

Tested on: patients with initial abnormal values
Experiment: Rate of change of weight, HBA1c, HDL, TG and AST in RYGB, Brake, combination and control patients (FIGS. 18-22)
Format: in vivo, human
Settings: FIGS. 18-21 control patients
Description: (§1) FIG. 18. Weight change in patients with RYGB in comparison with treatment with Brake alone, Brake with Metformin and Brake with Atorvastatin. Also shown are control patients given Atorvastatin alone and Metformin alone. […] Additional medications in the control patients are shown at the table on the bottom
as §1, with “19. HBA1c” for “18. Weight”
FIG. 20. HDL change in patients with RYGB in comparison with treatment with Brake alone, Brake with Atorvastatin. Also shown are control patients given Atorvastatin or other statins alone. […] Additional medications in the control patients are shown at the table on the bottom, note that some were taking fish oil products.
FIG. 21. Triglyceride (TG) changes in patients with RYGB in comparison with treatment with Brake alone, Brake with Atorvastatin. Also shown are control patients given Atorvastatin (usually 10 mg doses) or other statins. […] Additional medications in the control patients are shown at the table on the bottom.
FIG. 22. […]

Compound: CC(C)c1c(C(=O)Nc2ccccc2)c(-c2ccccc2)c(-c2ccc(F)cc2)n1CC[C@@H](O)C[C@@H](O)CC(=O)O [atorvastatin]
- effect on metabolic syndrome biomarkers when given alone: little effect
